Test results published in patent CN115232210A.
Where a chain is given by its changes, count along the chain named. Results are given in words; binding and its absence hold for the method and conditions named. Some results given as binding are weak or reduced against the parent protein; the word gives no strength. Blank lines part the entries; values can stand above or below the binder they belong to.

Sequences of proteins named here, by UniProt entry; tags and fusion partners are left off. A change or cut given only in a name is not applied to a line headed by its entry. A line that says so, or that is headed by a name, gives the form on record, which may keep a tag or linker.
HEK293T细胞表达的猴CD40 (猴 (cyno)) (G7PG38, form named): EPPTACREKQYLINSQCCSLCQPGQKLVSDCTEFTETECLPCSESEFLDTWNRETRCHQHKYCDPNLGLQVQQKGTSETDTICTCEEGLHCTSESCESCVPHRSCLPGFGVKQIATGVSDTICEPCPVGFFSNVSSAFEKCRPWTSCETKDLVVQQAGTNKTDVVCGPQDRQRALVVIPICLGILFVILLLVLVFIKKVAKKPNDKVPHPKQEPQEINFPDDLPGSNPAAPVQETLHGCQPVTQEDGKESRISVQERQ

Target: HEK293T细胞表达的猴CD40 (猴 (cyno)) (UniProt G7PG38)
Assay: flow cytometry on HEK293T-cynoCD40 cells

- binding: binds
B1: 42D11-8 (antibody, V domains shown)
VH: QVQLKQSGPGLVQPSQSLSITCTVSGFSLTSYGVHWVRQSPGKGLEWLGMIWSGGSTDYNSAFISRLSISKDNFKSQVFFKMNSLQADDTAIYYCARVGGDYWGQGTTVTVSS
VL: DIVITQTPLSLPVSLGDPASISCRSSQSLVHSRGNTYLHWFLQKPGQSPKLLIYKVSNRFSGVPDRFSGSGSGTDFTLRISRLEAEDLGVYFCFQTTHVPWTFGGGTKLEIK

- binding: binds
B2: 31A2-2 (antibody, V domains shown)
VH: B1 VH with Q6E, S31N, G33S, S61A
VL: B1 VL with I2V, V3L, I4M, V30L, L83V
